Results are given in words; binding and its absence hold for the method and conditions named. In cells and extracts the contact can be indirect. Here binding means that the protein was enriched with, or labelled near, the bait; the list need not be complete.
Target: Flag-HSP70
Assay: affinity purification with mass spectrometry; HEK 293T cells transfected with Flag-HSP70; IP with anti-IgG/anti-Flag and protein A/G agarose beads; SDS-PAGE, silver stain, bands cut for mass spectrometry (Q-Exactive, Mascot 2.2)

B1: KANK2 (KN motif and ankyrin repeat domains 2) (protein, UniProt Q63ZY3 1-851)
chain: MAQVLHVPAPFPGTPGPASPPAFPAKDPDPPYSVETPYGYRLDLDFLKYVDDIEKGHTLRRVAVQRRPRLSSLPRGPGSWWTSTESLCSNASGDSRHSAYSYCGRGFYPQYGALETRGGFNPRVERTLLDARRRLEDQAATPTGLGSLTPSAAGSTASLVGVGLPPPTPRSSGLSTPVPPSAGHLAHVREQMAGALRKLRQLEEQVKLIPVLQVKLSVLQEEKRQLTVQLKSQKFLGHPTAGRGRSELCLDLPDPPEDPVALETRSVGTWVRERDLGMPDGEAALAAKVAVLETQLKKALQELQAAQARQADPQPQAWPPPDSPVRVDTVRVVEGPREVEVVASTAAGAPAQRAQSLEPYGTGLRALAMPGRPESPPVFRSQEVVETMCPVPAAATSNVHMVKKISITERSCDGAAGLPEVPAESSSSPPGSEVASLTQPEKSTGRVPTQEPTHREPTRQAASQESEEAGGTGGPPAGVRSIMKRKEEVADPTAHRRSLQFVGVNGGYESSSEDSSTAENISDNDSTENEAPEPRERVPSVAEAPQLRPAGTAAAKTSRQECQLSRESQHIPTAEGASGSNTEEEIRMELSPDLISACLALEKYLDNPNALTERELKVAYTTVLQEWLRLACRSDAHPELVRRHLVTFRAMSARLLDYVVNIADSNGNTALHYSVSHANFPVVQQLLDSGVCKVDKQNRAGYSPIMLTALATLKTQDDIETVLQLFRLGNINAKASQAGQTALMLAVSHGRVDVVKALLACEADVNVQDDDGSTALMCACEHGHKEIAGLLLAVPSCDISLTDRDGSTALMVALDAGQSEIASMLYSRMNIKCSFAPMSDDESPTSSSAEE
For B1, the binding was “binds”.

Source: paper PMC8946178
